Paper PMC7237480
These are yes or no findings as the source states them, for the method shown. In cells and extracts the contact can be indirect. Some results given as binding are weak or reduced against the parent protein; the word gives no strength. Where a sequence is shown, tags or fusion partners need not be part of it.

Molecular target: T1, AtIBH1-cYFP (Arabidopsis thaliana) (UniProt Q9SKX1)
T1 sequence: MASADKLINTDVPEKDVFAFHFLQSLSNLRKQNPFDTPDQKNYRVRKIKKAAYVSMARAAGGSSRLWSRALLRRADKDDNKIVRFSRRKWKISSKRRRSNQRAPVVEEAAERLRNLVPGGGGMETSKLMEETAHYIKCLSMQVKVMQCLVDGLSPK
Assay: split reporter; nYFP and cYFP fusions co-transformed into Arabidopsis mesophyll protoplasts (the legend says gerbera); dark, 23 °C, 22 h; confocal microscopy

binding: binds
B1: AtHBI1-nYFP (protein, UniProt Q9ZPW3 1-337)
chain: MLEGLVSQESLSLNSMDMSVLERLKWVQQQQQQLQQVVSHSSNNSPELLQILQFHGSNNDELLESSFSQFQMLGSGFGPNYNMGFGPPHESISRTSSCHMEPVDTMEVLLKTGEETRAVALKNKRKPEVKTREEQKTEKKIKVEAETESSMKGKSNMGNTEASSDTSKETSKGASENQKLDYIHVRARRGQATDRHSLAERARREKISKKMKYLQDIVPGCNKVTGKAGMLDEIINYVQCLQRQVEFLSMKLAVLNPELELAVEDVSVKQFQAYFTNVVASKQSIMVDVPLFPLDQQGSLDLSAINPNQTTSIEAPSGSWETQSQSLYNTSSLGFHY
